Whole data set: some 33,000 sequences, median “E-score (-0.5 to 0.5)” near -0.0034, cut for the highest 2% near 0.25. This is one part of the list.
target: T1, Yap3 (UniProt P38749); experiment: PBM E-score (8-mer binding enrichment) (E-score (-0.5 to 0.5)); higher = stronger / more preferred TF binding; details: protein concentration: 100 nM; construct: GST-full length
T1 sequence: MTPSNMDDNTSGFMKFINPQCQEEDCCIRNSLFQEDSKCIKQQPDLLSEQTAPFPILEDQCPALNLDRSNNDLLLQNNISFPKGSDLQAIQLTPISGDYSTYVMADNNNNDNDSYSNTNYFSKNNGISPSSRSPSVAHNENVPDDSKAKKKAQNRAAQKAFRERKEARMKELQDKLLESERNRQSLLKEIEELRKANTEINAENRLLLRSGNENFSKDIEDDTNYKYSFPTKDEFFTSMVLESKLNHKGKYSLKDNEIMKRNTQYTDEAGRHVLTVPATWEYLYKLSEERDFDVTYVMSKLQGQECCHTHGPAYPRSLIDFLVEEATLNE
In short: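 Universal all-10-mer Agilent arrays, fresh or stripped once, were converted to double-stranded form by primer extension. GST-tagged yeast transcription factors from PURExpress in vitro transcription/translation, full-length or DNA-binding domain only, were applied at about 100-200 nM and detected with fluorescent anti-GST. After masliner normalisation, the Universal PBM Analysis Suite scored each ungapped eight-base word together with its reverse complement by E-score.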

Sequence | PBM E-score
CCTAGAGG | -0.177
AAGTTACT | 0.104
GTTGACCA | 0.0339
ATAAGCAG | 0.131
ACCCGGGC | -0.226
CGCCCGAC | -0.08
AATATAAC | 0.247
AAATGGTT | -0.0164
CAGTCCAA | -0.184
ACACGAGA | -0.0736
ATGGGCCA | -0.122
AATCCACG | 0.0389
ATGAAGTC | -0.071
TAAGCATA | 0.161
CTAGTACC | 0.0239
ACGAGAAG | -0.132
GTAGGATA | -0.00688
AATTAGCA | 0.207
TCACCGAA | -0.023
CTACTCGA | -0.00855
AAAAAAGA | 0.125
ACGTGATA | 0.126

Sequence | PBM E-score
AAGTGTTA | 0.112
TACTACAA | 0.229
CATACTCG | 0.0829
AGACAGCA | 0.0232
ACCGAAAG | -0.0922
ATTAACGC | 0.0599
TCGCCAGA | -0.0969
AATAAACC | 0.17
AGCGGACA | -0.0696
ACATAAAC | 0.233
AATAACCG | -0.00637
AATTTCAG | 0.0354
ATAACTTG | 0.134
TCCGTCAA | 0.084
ATTTACAA | 0.225
AGCCAAGG | -0.0619
AAAACTTA | 0.135
CCTTGCCC | 0.0198
CTAGACAA | -0.0572
CAGGAACA | 0.0218
CTAGTCGC | -0.185
ACAGCAAG | 0.247

Sequence | PBM E-score
ACGGCCCC | -0.329
AGGGGGGC | -0.442
GAAGCGGC | -0.229
AACTAGCC | -0.0476
GACGTGAA | 0.0592
TACGTTCA | 0.119
CACACCAC | 0.189
AATCCTTC | -0.14
CCCGAGTC | -0.0607
CCGCGCCG | -0.118
ATGATGCG | 0.0421
CAACGTGA | -0.0798
ATTGATCG | 0.104
ATGGCAGA | 0.0912
GTTTGTTA | 0.0959
ATGCGCGG | -0.0394
AAACTGCG | -0.049
AGACTAGA | -0.243
TGTTGTAA | 0.144
TCACAGGA | 0.049
CCATCTTC | 0.0621
TACATATA | 0.248

Sequence | PBM E-score
ACGCTACA | 0.136
GCGGAACC | -0.0148
ACACCAAC | 0.0179
GGTCCGAA | 0.0386
CAACAATC | 0.203
CTTGTCCA | -0.0307
CGTCCGTA | -0.0229
ACCTAGAT | 0.00493
AAAAGGTC | -0.0364
CAACATGC | 0.00222
CTGTTTTA | 0.254
CGAGTGGA | -0.0396
GCACCGGA | -0.205
CCAATACC | -0.0145
CTTATTTA | 0.11
TAGGCCGA | -0.212
AGACGGTC | -0.17
TGAGAGAA | 0.0805
CACGTACG | -0.109
CAACTCGC | 0.0689
CCCTCTAA | -0.222
ATAGCGAA | 0.194

Sequence | PBM E-score
GTCACAGA | 0.104
CAATAACG | 0.148
AACCCCTC | -0.185
ACCTTCCT | -0.194
CCGTAGAC | -0.134
CAGTTATA | 0.0741
TAGTACCA | 0.0794
CGCTCGGA | -0.0175
CCAAGTGG | -0.144
TATATTCA | 0.259
GTATTGCA | 0.0173
CCCGATAA | -0.0403
TCTGTGAA | 0.129
AACCAGCC | -0.187
AGATTCAC | -0.0506
ATCCAAAC | 0.0616
CGGCGCGC | 0.0571
AGTTCCAC | -0.0735
CAAAAAAA | 0.203
CATCAGCG | -0.102
ACGTGTTC | -0.0741

Source: the supplement of paper PMC3334620
